PubChem BioAssay AID1671195 | Yale University – 2021
Test: 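Regulators of LDL receptor activity judged by labelled LDL uptake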 (primary screen). Cell system: human Huh7 hepatoma cells. Reagents: siRNA pool against human genes, 18 nM. Duration: about 2 to 2.5 days of knockdown, then 8 h LDL uptake. Conditions: DiI-labelled LDL at 30 µg/ml for 8 h, in lipoprotein-deficient serum medium. Measurement: 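Fluorescent LDL signal imaged in cells, scaled to the plate median, robust z-score for each replicate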. Direction: robust z-score: higher = more LDL uptake after knockdown. Active means: 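a gene counts as active if at least two replicate z-scores exceed ±2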.
In all, the deposit lists about 22,000 reagents; below is an unselected part. Of all reagents, about 1,510 (6.9%) were called active. 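Active includes knockdowns raising or lowering LDL uptake; positive z-scores mean more uptake, negative mean less.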 Unmarked entries are inactive.

With ZNF22-AS1, what does the deposit list?
robust z-score, replicate 1: 0.493; robust z-score, replicate 2: 0.455; robust z-score, replicate 3: 0.537

How did the screen score ZG16B?
robust z-score, replicate 1: -1.5; robust z-score, replicate 2: -1.17; robust z-score, replicate 3: -1.23

For CXorf66, what was measured?
robust z-score, replicate 1: 0.705; robust z-score, replicate 2: 0.259; robust z-score, replicate 3: 0.326

Which result is listed for PCF11?
robust z-score, replicate 1: -0.328; robust z-score, replicate 2: -1.48; robust z-score, replicate 3: -0.271

Laid out differently: 2 of the entries above
target gene | robust z-score, replicate 1 | robust z-score, replicate 2 | robust z-score, replicate 3
ZNF22-AS1 | 0.493 | 0.455 | 0.537
ZG16B | -1.5 | -1.17 | -1.23

Additional entries:
For SLC1A7, how do the results read?
robust z-score, replicate 1: -0.511; robust z-score, replicate 2: 0.293; robust z-score, replicate 3: 0.213

With LOC391770 (retired record), what was measured?
robust z-score, replicate 1: 0.851; robust z-score, replicate 2: 0.565; robust z-score, replicate 3: 0.0231

With APOLD1, what does the deposit list?
robust z-score, replicate 1: 0.65; robust z-score, replicate 2: 0.882; robust z-score, replicate 3: 1.19

Which result is listed for LOC441399 (retired record)?
robust z-score, replicate 1: 1.56; robust z-score, replicate 2: 0.422; robust z-score, replicate 3: 0.347

For C9orf78P2, what was measured?
robust z-score, replicate 1: 0.386; robust z-score, replicate 2: 0.133; robust z-score, replicate 3: -0.0354

For LONRF1, what does the deposit list?
robust z-score, replicate 1: -0.712; robust z-score, replicate 2: -1.38; robust z-score, replicate 3: 3.33

Which result is listed for DMRTC1?
robust z-score, replicate 1: 0.547; robust z-score, replicate 2: 0.794; robust z-score, replicate 3: 0.513

For LMNB1, how do the results read?
robust z-score, replicate 1: 1.24; robust z-score, replicate 2: 0.747; robust z-score, replicate 3: -0.0426
